From PubChem BioAssay record AID1053133 (Broad Institute, 2014).

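Vaccinia-infected cells with a two-color viral stage reporter; Venus fluorescence read on a plate reader; the cell line is not named here; timing not stated here. The test concentration is not given here. Percent change in Venus reporter signal; lower (more negative) values mean stronger inhibition of that viral stage.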

Values are in %. How 0% and 100% were set is not given here. Common to all entries: measured here: Venus reporter, other viral stage. This is a side read-out of the assay, for part of the compounds, not drawn at random.

Compound,activity change (Venus) (%)
Cc1ccc(S(=O)(=O)N[C@H]2CC[C@@H](CCNC(=O)C3CCCCC3)O[C@@H]2CO)cc1,-36.99
C[C@H](NC(=O)C[C@@H]1CC[C@@H]2[C@H](COC[C@@H](O)CN2Cc2ccc(C(F)(F)F)cc2)O1)c1ccccc1,-25.78
COc1ccc(S(=O)(=O)Nc2ccc3c(c2)C(=O)N([C@@H](C)CO)C[C@@H](C)[C@@H](CN(C)S(=O)(=O)c2ccccc2)OCCCC[C@@H](C)O3)cc1,-23.14
N#C[C@H]1[C@@H](c2ccc(C3=CCCCC3)cc2)[C@H](CO)N1C(=O)NC1CCCCC1,-30.85
C[C@H]1CCCCO[C@H](CN(C)C(=O)Cc2ccccc2)[C@@H](C)CN([C@@H](C)CO)C(=O)c2cc(NS(=O)(=O)c3ccc(Cl)cc3)ccc2O1,-51.63
CCCN(C)C[C@@H]1Oc2cc(C#Cc3ccc(F)cc3)ccc2S(=O)(=O)N([C@@H](C)CO)C[C@@H]1C,-39.29
C[C@H](CO)N1C[C@H](C)[C@@H](CN(C)Cc2ccc(Oc3ccccc3)cc2)Oc2ncc(-c3ccncc3)cc2C1=O,-60.79
C[C@@H]1CN([C@@H](C)CO)C(=O)Cc2cc(NC(=O)Nc3ccccc3)ccc2O[C@H]1CN(C)Cc1ccccc1,-39.97
Cc1ccccc1-c1ccc([C@H]2[C@H]3CN(C(=O)Nc4ccccc4)CCCCN3[C@H]2CO)cc1,-57.13
C[C@H]1CN([C@@H](C)CO)S(=O)(=O)c2ccc(/C=C/c3ccccc3)cc2O[C@H]1CN(C)C(=O)NC1CCCCC1,-27.63
COc1ccc2c3c([nH]c2c1)[C@@H](CO)N(C(=O)Nc1ccccc1F)CC31CN(C(=O)c2ccccc2F)C1,-40.07
O=C(C[C@@H]1CC[C@@H]2[C@H](COC[C@H](O)CN2Cc2cccc(Cl)c2)O1)NCc1cccc(F)c1,-32.5
N#C[C@H]1[C@@H](c2ccccc2C2=CCCCC2)[C@H](CO)N1C(=O)Cc1ccncc1,-33.53
C[C@H](CO)N1C[C@H](C)[C@H](CN(C)Cc2ccc(Cl)c(Cl)c2)OCCCC[C@H](C)Oc2ccc(NS(=O)(=O)c3ccc(F)cc3)cc2C1=O,-69.44
COc1ccc(S(=O)(=O)Nc2cccc3c2O[C@H](CN(C)Cc2ccc(Oc4ccccc4)cc2)[C@H](C)CN([C@H](C)CO)C3=O)cc1,-24.36
C[C@H]1CN([C@@H](C)CO)S(=O)(=O)c2ccc(-c3cccc(F)c3)cc2O[C@H]1CN(C)S(=O)(=O)c1ccc(F)cc1,-28.72
COc1cccc(C#Cc2ccc([C@@H]3[C@H](C#N)N(C(=O)C4CCCC4)[C@H]3CO)cc2)c1,-38.39
C[C@H](CO)N1C[C@H](C)[C@@H](CN(C)Cc2ccccc2)Oc2ccc(NC(=O)Nc3ccc4c(c3)OCO4)cc2CC1=O,-25.86
COc1cccc(S(=O)(=O)N(C)C[C@@H]2Oc3ncc(C#CCC(C)C)cc3C(=O)N([C@@H](C)CO)C[C@H]2C)c1,-41.48
CN1c2ccc(-c3cccc(C#N)c3)cc2[C@H]2[C@H](CCN2C(=O)C2CCCCC2)[C@H]1CO,-57.5
CO[C@H]1CN(C)C(=O)c2cc(NC(=O)c3ccc(-c4ccccc4)cc3)ccc2OC[C@H](C)NC[C@H]1C,-80.28
C[C@H](CO)N1C[C@H](C)[C@@H](CN(C)Cc2ccccc2)OCCCC[C@H](C)Oc2ccc(NC(=O)Nc3ccc(C(F)(F)F)cc3)cc2C1=O,-18.95
C[C@H]1CN([C@@H](C)CO)C(=O)c2cc(NC(=O)Nc3ccc(C(F)(F)F)cc3)ccc2O[C@@H]1CN(C)Cc1ccncc1,-33.45
COc1ccc(S(=O)(=O)Nc2ccc3c(c2)C(=O)N([C@@H](C)CO)C[C@@H](C)[C@H](CN(C)S(=O)(=O)c2ccc(Cl)cc2)OCCCC[C@@H](C)O3)cc1,-40.33
c1ncc(-c2ccc(C3[C@@H]4CN(Cc5cocn5)C[C@H]3N4)cc2)cn1 (stereo partly shown),-43.03
COc1ccc(C#Cc2ccc([C@@H]3[C@H]4CN(C(=O)c5cccnc5)CC(=O)N4[C@H]3CO)cc2)cc1,-32.52
Cc1noc(C)c1NC(=O)Nc1ccc2c(c1)C(=O)N([C@H](C)CO)C[C@H](C)[C@@H](CN(C)Cc1ccc(Cl)c(Cl)c1)OCCCC[C@H](C)O2,-36.53
C[C@H](CO)N1C[C@H](C)[C@H](CN(C)CC2CCCCC2)Oc2ccc(NC(=O)CCCCCC(=O)Nc3ccccc3N)cc2CC1=O,-39.52
O=S(=O)(Cc1ccccc1)N1CCCCN2[C@@H](CO)[C@@H](c3ccc(C#Cc4ccccc4)cc3)[C@@H]2C1,-20
O=C(Nc1ccccc1)N1CCCCN2[C@@H](CO)[C@@H](c3ccc(-c4ccccc4F)cc3)[C@@H]2C1,-78.3
CC(=O)N1CCCCN2[C@H](CO)[C@@H](c3ccc(C#Cc4ccccc4F)cc3)[C@@H]2C1,-51.8
C[C@H]1CN([C@@H](C)CO)C(=O)Cc2cc(NC(=O)Nc3ccccc3)ccc2O[C@H]1CN(C)Cc1ccc(Oc2ccccc2)cc1,-30.13
C[C@@H]1CCCCO[C@@H](CN(C)Cc2ccc(Cl)c(Cl)c2)[C@H](C)CN([C@H](C)CO)C(=O)c2cc(NC(=O)c3ccccc3)ccc2O1,-59.11
COCC(=O)N(C)C[C@H]1Oc2cc(C#CCC3CCCC3)ccc2S(=O)(=O)N([C@H](C)CO)C[C@H]1C,-59.44
C[C@@H]1CN([C@@H](C)CO)C(=O)c2c(c3ccccc3n2C)-c2ccccc2CO[C@H]1CN(C)C,-28.8
CC(=O)N1CCCCN2[C@H](C1)[C@@H](c1ccc(C#Cc3ccccc3F)cc1)[C@@H]2CO,-54.08
COc1cccc(C#Cc2ccc([C@@H]3[C@@H](C#N)N(C(=O)C4CCC4)[C@H]3CO)cc2)c1,-13.21
COc1ccc(NC(=O)N2CC(=O)N3[C@H](C2)[C@H](c2ccc(/C=C/c4ccccc4)cc2)[C@@H]3CO)cc1,-56.01
C[C@H](CO)N1C[C@H](C)[C@@H](CN(C)Cc2ccc(Cl)c(Cl)c2)OCc2cnnn2CCCC1=O,-33.08
C[C@H](CO)N1C[C@H](C)[C@H](CN(C)S(=O)(=O)c2ccccc2)OCCCC[C@H](C)Oc2ccc(NS(=O)(=O)c3ccccc3)cc2C1=O,-47
C[C@@H]1CN([C@@H](C)CO)C(=O)c2cc(NC(=O)CCC(F)(F)F)ccc2O[C@@H]1CN(C)Cc1ccc(Cl)c(Cl)c1,-46.16
C[C@H]1CN([C@@H](C)CO)C(=O)c2cc(C#CCc3ccccc3)cnc2O[C@@H]1CN(C)Cc1cccc(F)c1,-46.51
Cc1ccc(S(=O)(=O)Nc2ccc3c(c2)C(=O)N([C@@H](C)CO)C[C@@H](C)[C@@H](CN(C)Cc2ccc(Cl)c(Cl)c2)OCCCC[C@@H](C)O3)cc1,-49.83
C[C@@H]1CN([C@H](C)CO)C(=O)c2cc(NC(=O)Nc3ccccc3)ccc2O[C@@H](C)CCCCO[C@@H]1CN(C)CC1CCCCC1,-58.25
COc1ccc(CN(C)C[C@H]2OCCCC[C@H](C)Oc3ccc(NC(=O)Nc4ccc5c(c4)OCO5)cc3C(=O)N([C@@H](C)CO)C[C@@H]2C)cc1,-68.22
O=C(Nc1ccc(F)cc1)N1CCCCN2[C@H](CO)[C@@H](c3ccc(-c4cccc(F)c4)cc3)[C@H]2C1,-73.84
C[C@@H]1CCCCO[C@@H](CN(C)Cc2ccccc2)[C@H](C)CN([C@H](C)CO)C(=O)c2cc(NC(=O)Cc3ccccc3)ccc2O1,-42.25
C[C@H]1CN([C@@H](C)CO)C(=O)c2cccc(NC(=O)c3ccc(-c4nccs4)cc3)c2O[C@@H]1CN(C)Cc1ccc(Cl)c(Cl)c1,-35.31
CC(C)CC#Cc1ccc([C@H]2[C@@H](CO)N3C(=O)CN(C(=O)c4ccc5c(c4)OCO5)C[C@H]23)cc1,-50.5
C[C@H](CO)N1C[C@H](C)[C@@H](CN(C)Cc2ccc(C(F)(F)F)cc2)Oc2ccc(NC(=O)C3CCCCC3)cc2CC1=O,-58.78
C[C@@H]1CN([C@H](C)CO)C(=O)c2cc(NC(=O)Nc3ccccc3)ccc2O[C@@H](C)CCCCO[C@H]1CN(C)Cc1ccc(Cl)c(Cl)c1,-28.35
COc1ccccc1C#Cc1cnc2c(c1)C(=O)N([C@H](C)CO)C[C@@H](C)[C@H](CN(C)C(=O)c1ccc3c(c1)OCO3)O2,-44.6
O=C(Nc1ccccc1)N1CC(=O)N2[C@@H](CO)[C@H](c3ccc(C#CC4CCCCC4)cc3)[C@@H]2C1,-47.61
CC(C)C#Cc1ccc([C@@H]2[C@H]3CN(S(=O)(=O)c4ccccc4)CC(=O)N3[C@H]2CO)cc1,-45.79
COCC#Cc1ccc2c(c1)O[C@H](CN(C)S(=O)(=O)c1ccc(C)cc1)[C@@H](C)CN([C@@H](C)CO)S2(=O)=O,-34.58
C[C@@H]1CN([C@H](C)CO)C(=O)Cc2cc(NC(=O)Nc3ccc(F)cc3)ccc2O[C@@H]1CN(C)Cc1ccc(-c2ccccc2)cc1,-42.76
COc1cccc(C#Cc2ccc([C@@H]3[C@@H](CO)N4C(=O)CN(C(=O)Cc5cccnc5)C[C@@H]34)cc2)c1,-31.02
C[C@H](CO)N1C[C@H](C)[C@H](CN(C)Cc2ccc(Oc3ccccc3)cc2)Oc2ccc(NC(=O)Nc3ccccc3)cc2C1=O,-30.92
COc1cccc(S(=O)(=O)N(C)C[C@@H]2Oc3ncc(/C=C/c4ccccc4)cc3C(=O)N([C@H](C)CO)C[C@@H]2C)c1,-20.43
C[C@@H]1CN([C@@H](C)CO)C(=O)c2c(c3ccccc3n2C)-c2ccccc2CO[C@@H]1CN(C)S(=O)(=O)c1cccc(F)c1,-46.12
OC[C@@H]1[C@@H](c2ccc(C#CC3CCCC3)cc2)[C@H]2CN(CCC(F)(F)F)CCCCN12,-86.47

The first 8 entries again:

| Compound | activity change (Venus) (%) |
|---|---|
| `Cc1ccc(S(=O)(=O)N[C@H]2CC[C@@H](CCNC(=O)C3CCCCC3)O[C@@H]2CO)cc1` | -36.99 |
| `C[C@H](NC(=O)C[C@@H]1CC[C@@H]2[C@H](COC[C@@H](O)CN2Cc2ccc(C(F)(F)F)cc2)O1)c1ccccc1` | -25.78 |
| `COc1ccc(S(=O)(=O)Nc2ccc3c(c2)C(=O)N([C@@H](C)CO)C[C@@H](C)[C@@H](CN(C)S(=O)(=O)c2ccccc2)OCCCC[C@@H](C)O3)cc1` | -23.14 |
| `N#C[C@H]1[C@@H](c2ccc(C3=CCCCC3)cc2)[C@H](CO)N1C(=O)NC1CCCCC1` | -30.85 |
| `C[C@H]1CCCCO[C@H](CN(C)C(=O)Cc2ccccc2)[C@@H](C)CN([C@@H](C)CO)C(=O)c2cc(NS(=O)(=O)c3ccc(Cl)cc3)ccc2O1` | -51.63 |
| `CCCN(C)C[C@@H]1Oc2cc(C#Cc3ccc(F)cc3)ccc2S(=O)(=O)N([C@@H](C)CO)C[C@@H]1C` | -39.29 |
| `C[C@H](CO)N1C[C@H](C)[C@@H](CN(C)Cc2ccc(Oc3ccccc3)cc2)Oc2ncc(-c3ccncc3)cc2C1=O` | -60.79 |
| `C[C@@H]1CN([C@@H](C)CO)C(=O)Cc2cc(NC(=O)Nc3ccccc3)ccc2O[C@H]1CN(C)Cc1ccccc1` | -39.97 |